Data as given in patent publication EP2366394A1, “Characterization and validation of inhibitors and ligands of dipeptidyl aminopeptidase IV (DP IV)” (IMTM GmbH, priority 2010, dated 2011).
For at least one compound, name, drawing or mass did not settle the structure.

Biological target: DP8/9
Experiment: Inhibition of the enzymatic activity of DPIV related enzymes DP8/9
Type: biochemical
Conditions: > 25: No inhibition
Description: Measurement of the enzymatic activity of DPIV and related enzymes

Cc1[nH]c2ccccc2c1C(c1cc(Cl)ccc1O)N1CCOCC1 (stereo not shown) [No. 16, 4-Chloro-2-[(2-methyl-1H-indol-3-yl)(morpholin-4-yl)methyl]-benzenolate]
IC50: > 25 µM
